In the supplement of paper PMC4635364:
Where a name gives a salt, the structure may show the parent alone. The list shows a part of the results. Repeats in this data set agree poorly, so a single value says little.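 Cells: ReNCell VM human fetal ventral-midbrain neural progenitors, differentiated mitogen-free. Blinded raters compared doublecortin-stained (early neurons) or tyrosine hydroxylase-stained (dopaminergic neurons) images with untreated wells, where 0 means no change. After repeats and both raters were averaged, compounds scoring 2 or above became hits for retesting.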

Columns and labels:
ReNCell VM [1] = experiment: neuronal differentiation score (DCX+ cell fraction vs untreated, manual image score) (score (-3 to 3)); higher = more neuronal differentiation; settings: 2 uM, 2 weeks
ReNCell VM [2] = experiment: dopaminergic neuron differentiation score (TH+ cell fraction vs untreated, manual image score) (score (0 to 3)); higher = more TH+ dopaminergic neuron differentiation; settings: 2 uM, 4 weeks, BDNF 10 ng/ml + GDNF 10 ng/ml

Nc1nc(Nc2ccccc2)nc2c1ncn2[C@@H]1O[C@H](CO)[C@@H](O)[C@H]1O
neuronal differentiation score (ReNCell VM [1]; library: Tocriscreen): inactive: 0
dopaminergic neuron differentiation score (ReNCell VM [2]; library: Tocriscreen): inactive: 0

CO[C@@]1(NC(=O)CSCC#N)C(=O)N2C(C(=O)O)=C(CSc3nnnn3C)CS[C@@H]21 [Cefmetazole sodium salt]
neuronal differentiation score (ReNCell VM [1]; library: Prestwick): inactive: 0
dopaminergic neuron differentiation score (ReNCell VM [2]; library: Prestwick): inactive: 0

CSc1ccc(C(=O)c2[nH]c(=O)[nH]c2C)cc1 [Enoximone]
neuronal differentiation score (ReNCell VM [1]; library: LOPAC): inactive: 0
dopaminergic neuron differentiation score (ReNCell VM [2]; library: LOPAC): inactive: 0

CCN(CC)C(=S)SSC(=S)N(CC)CC
neuronal differentiation score (ReNCell VM [1]; library: Spectrum): inactive: 0
dopaminergic neuron differentiation score (ReNCell VM [2]; library: Spectrum): inactive: 0

CC[C@]12CCCN3CCc4c(n(c5ccccc45)[C@@](O)(C(=O)OC)C1)[C@@H]32
neuronal differentiation score (ReNCell VM [1]; library: Spectrum): inactive: 0
dopaminergic neuron differentiation score (ReNCell VM [2]; library: Spectrum): inactive: 0

C[C@@H](NC(=O)/C(C#N)=C/c1ccc(O)c(O)c1)c1ccccc1 [Tyrphostin AG 527]
neuronal differentiation score (ReNCell VM [1]; library: LOPAC): inactive: 0
dopaminergic neuron differentiation score (ReNCell VM [2]; library: LOPAC): inactive: 0

CN(Cc1ccc(C(C)(C)C)cc1)Cc1cccc2ccccc12 [Butenafine Hydrochloride]
neuronal differentiation score (ReNCell VM [1]; library: Prestwick): inactive: 0
dopaminergic neuron differentiation score (ReNCell VM [2]; library: Prestwick): inactive: 0

NCCS
neuronal differentiation score (ReNCell VM [1]; library: Spectrum): inactive: 0
dopaminergic neuron differentiation score (ReNCell VM [2]; library: Spectrum): inactive: 0

COc1cc2c(cc1OC)C(C=Cc1ccc(OC)c(OC)c1OC)=NCC2
neuronal differentiation score (ReNCell VM [1]; library: Natural): inactive: 0
dopaminergic neuron differentiation score (ReNCell VM [2]; library: Natural): inactive: 0

O=C(/C=C/c1ccc(O)c(O)c1)O[C@@H]1C[C@@](OC(=O)/C=C/c2ccc(O)c(O)c2)(C(=O)O)C[C@@H](O)[C@@H]1O [Cynarin]
neuronal differentiation score (ReNCell VM [1]; library: Phytochemical): inactive: 0
dopaminergic neuron differentiation score (ReNCell VM [2]; library: Phytochemical): inactive: 0

Cc1cc(O)c2c(c1)C(=O)c1cccc(O)c1C2=O [1,8-Dihydroxy-3-methylanthraquinone]
neuronal differentiation score (ReNCell VM [1]; library: Phytochemical): inactive: 0
dopaminergic neuron differentiation score (ReNCell VM [2]; library: Phytochemical): inactive: 0

N[C@@H](CSC(c1ccccc1)(c1ccccc1)c1ccccc1)C(=O)O [S-Trityl-L-cysteine]
neuronal differentiation score (ReNCell VM [1]; library: Tocriscreen): inactive: 0
dopaminergic neuron differentiation score (ReNCell VM [2]; library: Tocriscreen): inactive: 0

COc1ccc(C2C(=O)c3ccccc3C2=O)cc1
neuronal differentiation score (ReNCell VM [1]; library: Spectrum): inactive: -1
dopaminergic neuron differentiation score (ReNCell VM [2]; library: Spectrum): inactive: 0

Nc1nc(=O)c2c([nH]1)NC[C@@H](CNc1ccc(C(=O)N[C@@H](CCC(=O)O)C(=O)O)cc1)N2C=O [Folinic acid calcium salt]
neuronal differentiation score (ReNCell VM [1]; library: Prestwick): inactive: 0
dopaminergic neuron differentiation score (ReNCell VM [2]; library: Prestwick): inactive: 0

CC(C)=CCOc1cc2oc(=O)ccc2cc1O
neuronal differentiation score (ReNCell VM [1]; library: Spectrum): inactive: 0
dopaminergic neuron differentiation score (ReNCell VM [2]; library: Spectrum): inactive: 0

C#CCCCCCCCCCCCC(O)CC(O)CO.C=CCCCCCCCCCCCC(O)CC(O)CO (stereo not drawn)
neuronal differentiation score (ReNCell VM [1]; library: Spectrum): inactive: 0
dopaminergic neuron differentiation score (ReNCell VM [2]; library: Spectrum): inactive: 0

O=C1CCC(c2ccc(-n3ccnc3)cc2)=NN1 [Imazodan]
neuronal differentiation score (ReNCell VM [1]; library: LOPAC): inactive: 0
dopaminergic neuron differentiation score (ReNCell VM [2]; library: LOPAC): inactive: 0

CCCCN1CCCCC1C(=O)Nc1c(C)cccc1C (stereo not drawn)
neuronal differentiation score (ReNCell VM [1]; library: Spectrum): inactive: 0
dopaminergic neuron differentiation score (ReNCell VM [2]; library: Spectrum): inactive: 0

CC(=O)/C(=C\c1ccccc1)CC(=O)O
neuronal differentiation score (ReNCell VM [1]; library: Spectrum): inactive: 0
dopaminergic neuron differentiation score (ReNCell VM [2]; library: Spectrum): inactive: 0

CNCC[C@H](Oc1cccc2ccccc12)c1cccs1
neuronal differentiation score (ReNCell VM [1]; library: Spectrum): inactive: 0
dopaminergic neuron differentiation score (ReNCell VM [2]; library: Spectrum): inactive: 0

CC(=O)Nc1c(I)cc(I)c(C(=O)O)c1I
neuronal differentiation score (ReNCell VM [1]; library: Spectrum): inactive: 0
dopaminergic neuron differentiation score (ReNCell VM [2]; library: Spectrum): inactive: 0

Cc1cc2c(cc1Cl)N(C(=O)Nc1ccc(Oc3cccnc3C)nc1)CC2
neuronal differentiation score (ReNCell VM [1]; library: LOPAC): inactive: 0
dopaminergic neuron differentiation score (ReNCell VM [2]; library: LOPAC): inactive: 0

C=C1C(=O)O[C@@H]2/C=C(\C)CC/C=C(\C)CC[C@@H]12 [Costunolide]
neuronal differentiation score (ReNCell VM [1]; library: Tocriscreen): inactive: 0
dopaminergic neuron differentiation score (ReNCell VM [2]; library: Tocriscreen): inactive: 0

CCCC(=O)O[C@]1(C(=O)CO)CC[C@H]2[C@@H]3CCC4=CC(=O)CC[C@]4(C)[C@H]3[C@@H](O)C[C@@]21C
neuronal differentiation score (ReNCell VM [1]; library: Spectrum): inactive: 0
dopaminergic neuron differentiation score (ReNCell VM [2]; library: Spectrum): inactive: 0

CN1C(CCl)Nc2cc(Cl)c(S(N)(=O)=O)cc2S1(=O)=O (stereo not drawn)
neuronal differentiation score (ReNCell VM [1]; library: Spectrum): inactive: 0
dopaminergic neuron differentiation score (ReNCell VM [2]; library: Spectrum): inactive: 0

COc1c2[nH]c3occc3c(OC)c-2ccc1=O [Haplopine]
neuronal differentiation score (ReNCell VM [1]; library: Phytochemical): inactive: 0
dopaminergic neuron differentiation score (ReNCell VM [2]; library: Phytochemical): inactive: 0

Cc1ccccc1OCC(O)CO (stereo not drawn) [Mephenesin]
neuronal differentiation score (ReNCell VM [1]; library: Prestwick): inactive: 0
dopaminergic neuron differentiation score (ReNCell VM [2]; library: Prestwick): inactive: 0

CC(C)C1C2CCC(C2)C1N (stereo not drawn)
neuronal differentiation score (ReNCell VM [1]; library: Tocriscreen): inactive: 0
dopaminergic neuron differentiation score (ReNCell VM [2]; library: Tocriscreen): inactive: 0

C[n+]1cccc(C(=O)[O-])c1
neuronal differentiation score (ReNCell VM [1]; library: Spectrum): inactive: 0
dopaminergic neuron differentiation score (ReNCell VM [2]; library: Spectrum): inactive: 0

NC(=O)c1ncn([C@@H]2O[C@H](CO)[C@@H](O)[C@H]2O)c1N
neuronal differentiation score (ReNCell VM [1]; library: Spectrum): inactive: 0
dopaminergic neuron differentiation score (ReNCell VM [2]; library: Spectrum): inactive: 0

O=c1[nH]nc(Sc2ncc([N+](=O)[O-])s2)n1-c1ccc2c(c1)OCCO2
neuronal differentiation score (ReNCell VM [1]; library: Tocriscreen): inactive: 0
dopaminergic neuron differentiation score (ReNCell VM [2]; library: Tocriscreen): inactive: 0

CN1CCOC(c2ccccc2)c2ccccc2C1 (stereo not drawn)
neuronal differentiation score (ReNCell VM [1]; library: Spectrum): inactive: 0
dopaminergic neuron differentiation score (ReNCell VM [2]; library: Spectrum): inactive: 0

CC(=O)O[C@H]1C[C@@]2(C)[C@@H](C[C@@H](O)[C@H]3[C@@]4(C)CC[C@@H](O)[C@@H](C)[C@@H]4CC[C@@]32C)/C1=C(\CCC=C(C)C)C(=O)O [Fusidic acid sodium]
neuronal differentiation score (ReNCell VM [1]; library: LOPAC): inactive: 0
dopaminergic neuron differentiation score (ReNCell VM [2]; library: LOPAC): inactive: 0

Nc1ccc(S(=O)(=O)Nc2ccccn2)cc1 [Sulfapyridine]
neuronal differentiation score (ReNCell VM [1]; library: Prestwick): inactive: 0
dopaminergic neuron differentiation score (ReNCell VM [2]; library: Prestwick): inactive: 0
